This is an account of results in PMC7687062.

By UniProt entry, the sequences of proteins in these tests, tags left out. Residues count along the entry.
UniProt F8VQB6, residues 860-2062: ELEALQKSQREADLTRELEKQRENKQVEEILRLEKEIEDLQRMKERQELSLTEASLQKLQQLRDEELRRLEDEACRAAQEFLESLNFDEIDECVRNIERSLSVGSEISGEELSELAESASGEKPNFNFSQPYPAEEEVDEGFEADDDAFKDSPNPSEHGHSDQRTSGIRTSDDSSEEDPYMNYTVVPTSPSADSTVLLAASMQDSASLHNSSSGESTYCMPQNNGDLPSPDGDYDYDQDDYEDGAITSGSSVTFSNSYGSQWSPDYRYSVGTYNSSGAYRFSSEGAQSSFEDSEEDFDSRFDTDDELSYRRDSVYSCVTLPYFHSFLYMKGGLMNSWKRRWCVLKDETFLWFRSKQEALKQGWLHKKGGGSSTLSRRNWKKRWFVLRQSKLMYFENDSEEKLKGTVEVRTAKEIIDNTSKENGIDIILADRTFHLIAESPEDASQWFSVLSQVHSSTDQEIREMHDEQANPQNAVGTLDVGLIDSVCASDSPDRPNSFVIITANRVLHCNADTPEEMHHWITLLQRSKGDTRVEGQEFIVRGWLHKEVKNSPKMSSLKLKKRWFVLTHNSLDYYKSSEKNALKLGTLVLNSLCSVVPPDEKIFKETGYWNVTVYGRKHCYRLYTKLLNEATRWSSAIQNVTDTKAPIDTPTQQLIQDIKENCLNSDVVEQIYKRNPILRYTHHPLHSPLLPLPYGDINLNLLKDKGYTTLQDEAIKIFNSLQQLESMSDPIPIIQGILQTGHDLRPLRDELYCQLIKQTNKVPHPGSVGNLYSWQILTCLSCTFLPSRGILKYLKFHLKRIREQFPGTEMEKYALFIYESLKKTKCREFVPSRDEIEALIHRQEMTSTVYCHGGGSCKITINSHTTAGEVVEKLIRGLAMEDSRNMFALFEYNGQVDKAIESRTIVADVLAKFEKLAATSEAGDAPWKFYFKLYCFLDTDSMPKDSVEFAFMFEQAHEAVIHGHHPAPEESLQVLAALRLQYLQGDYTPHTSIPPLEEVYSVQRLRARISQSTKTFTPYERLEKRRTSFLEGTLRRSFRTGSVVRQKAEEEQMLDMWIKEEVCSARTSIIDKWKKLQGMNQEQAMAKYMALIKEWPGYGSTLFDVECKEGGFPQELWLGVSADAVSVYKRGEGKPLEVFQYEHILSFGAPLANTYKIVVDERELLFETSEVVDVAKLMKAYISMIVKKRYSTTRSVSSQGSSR
UniProt E9Q4K7: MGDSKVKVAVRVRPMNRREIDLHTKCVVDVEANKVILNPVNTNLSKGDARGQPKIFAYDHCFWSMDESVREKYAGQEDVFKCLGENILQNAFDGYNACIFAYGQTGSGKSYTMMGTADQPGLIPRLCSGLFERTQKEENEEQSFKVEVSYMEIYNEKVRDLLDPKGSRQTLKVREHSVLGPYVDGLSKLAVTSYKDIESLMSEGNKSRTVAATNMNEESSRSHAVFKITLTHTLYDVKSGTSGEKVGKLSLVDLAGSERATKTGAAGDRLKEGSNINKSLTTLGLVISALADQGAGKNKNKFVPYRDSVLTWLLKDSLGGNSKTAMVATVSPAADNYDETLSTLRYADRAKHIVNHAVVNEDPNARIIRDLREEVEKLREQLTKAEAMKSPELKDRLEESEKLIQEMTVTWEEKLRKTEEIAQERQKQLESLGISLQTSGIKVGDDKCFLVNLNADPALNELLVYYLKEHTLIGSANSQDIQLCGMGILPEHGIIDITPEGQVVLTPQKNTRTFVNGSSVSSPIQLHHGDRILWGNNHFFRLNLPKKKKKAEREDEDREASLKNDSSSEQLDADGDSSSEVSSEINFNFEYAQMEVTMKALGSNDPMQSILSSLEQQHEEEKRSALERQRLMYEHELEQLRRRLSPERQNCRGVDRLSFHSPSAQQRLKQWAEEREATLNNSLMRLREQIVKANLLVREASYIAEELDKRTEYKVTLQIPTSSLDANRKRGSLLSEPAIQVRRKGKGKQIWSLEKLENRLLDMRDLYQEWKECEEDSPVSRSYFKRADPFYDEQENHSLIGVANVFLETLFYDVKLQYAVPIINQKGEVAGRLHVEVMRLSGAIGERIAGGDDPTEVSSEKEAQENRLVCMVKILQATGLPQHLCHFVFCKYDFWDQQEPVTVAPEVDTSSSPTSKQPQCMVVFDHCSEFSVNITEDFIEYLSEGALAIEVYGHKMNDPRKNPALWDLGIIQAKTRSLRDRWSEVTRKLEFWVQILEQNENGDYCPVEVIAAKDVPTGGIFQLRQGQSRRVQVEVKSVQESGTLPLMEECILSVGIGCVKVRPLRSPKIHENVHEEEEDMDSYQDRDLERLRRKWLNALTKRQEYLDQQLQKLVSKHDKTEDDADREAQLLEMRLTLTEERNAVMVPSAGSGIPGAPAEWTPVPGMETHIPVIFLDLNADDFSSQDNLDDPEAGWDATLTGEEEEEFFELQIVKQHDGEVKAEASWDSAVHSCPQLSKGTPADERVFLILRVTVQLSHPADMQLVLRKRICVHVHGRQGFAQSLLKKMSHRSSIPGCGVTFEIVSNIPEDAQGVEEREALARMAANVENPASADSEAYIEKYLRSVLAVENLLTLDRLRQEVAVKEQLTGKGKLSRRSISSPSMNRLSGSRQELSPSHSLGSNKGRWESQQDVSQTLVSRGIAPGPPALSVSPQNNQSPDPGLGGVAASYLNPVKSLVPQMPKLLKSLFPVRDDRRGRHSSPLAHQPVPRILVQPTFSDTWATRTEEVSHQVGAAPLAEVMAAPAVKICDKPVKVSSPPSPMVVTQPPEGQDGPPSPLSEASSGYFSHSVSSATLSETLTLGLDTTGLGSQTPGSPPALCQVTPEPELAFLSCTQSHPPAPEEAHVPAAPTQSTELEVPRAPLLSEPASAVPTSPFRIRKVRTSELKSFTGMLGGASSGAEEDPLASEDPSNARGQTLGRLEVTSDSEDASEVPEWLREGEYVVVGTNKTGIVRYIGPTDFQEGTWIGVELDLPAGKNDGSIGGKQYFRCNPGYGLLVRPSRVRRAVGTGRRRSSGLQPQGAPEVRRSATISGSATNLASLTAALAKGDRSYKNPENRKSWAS

These are yes or no findings as the source states them, for the method shown. Binding seen in cells or lysates may run through a third protein. Here binding means that the protein was enriched with, or labelled near, the bait; the list need not be complete.

For the experiment, the target named is GFP-hMyoX (GFP-tagged headless MyoX), expressed in cultured cortical neurons (mouse) (UniProt F8VQB6). The experiment can be described thus: affinity purification with mass spectrometry; GFP-hMyoX transfected into cultured cortical neurons, lysed after 48 h (20 mM Tris pH 8.0, 10 mM NaCl, 1 mM EDTA, 0.5% NP-40); precipitated with anti-GFP or control IgG; unique silver-stained bands (~50-250 kDa) analysed by LC-MS/MS.

Consider “KIF13B, endogenous in cultured cortical neurons (from UniProt E9Q4K7 1-1843)”, for which the binding result was “binds”.
